{"sequences": {"note": "Sequences of proteins named here, by UniProt entry; tags and fusion partners are left off. A change or cut given only in a name is not applied to a line headed by its entry.", "UniProt Q12518": "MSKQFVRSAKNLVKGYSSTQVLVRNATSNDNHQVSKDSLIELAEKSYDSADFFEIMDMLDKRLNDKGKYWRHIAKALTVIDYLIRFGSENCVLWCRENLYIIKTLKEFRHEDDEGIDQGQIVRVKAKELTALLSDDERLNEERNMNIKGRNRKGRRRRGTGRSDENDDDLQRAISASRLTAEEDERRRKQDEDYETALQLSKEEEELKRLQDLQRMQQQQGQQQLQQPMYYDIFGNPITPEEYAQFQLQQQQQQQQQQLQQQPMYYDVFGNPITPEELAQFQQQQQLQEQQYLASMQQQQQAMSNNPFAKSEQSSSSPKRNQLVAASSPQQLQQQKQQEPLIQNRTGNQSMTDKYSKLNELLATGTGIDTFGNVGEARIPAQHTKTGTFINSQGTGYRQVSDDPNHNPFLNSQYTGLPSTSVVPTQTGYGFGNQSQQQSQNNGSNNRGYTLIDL"}, "source": "paper PMC4161027", "binders": {"B1": {"name": "His-Snc1 cytosolic tail (aa1-93) (domain or fragment, UniProt P31109 1-93)", "chain": "MSSSTPFDPYALSEHDEERPQNVQSKSRTAELQAEIDDTVGIMRDNINKVAERGERLTSIEDKADNLAVSAQGFKRGANRVRKAMWYKDLKMK"}}, "biological_target": "GST fusion of the ENTH domain of Ent1 (yeast epsin 1) (yeast) (UniProt Q12518)", "assay": "pull-down; GST-tagged bait on glutathione beads, 6xHis-tagged prey, overnight at 4°C; 150 mM NaCl, 4 mM DTT, 4 mM β-mercaptoethanol, 0.1% NP-40, 0.05% BSA, 20 mM HEPES pH 7.4; anti-His immunoblot, densitometry; without IP6 or no phosphoinositol additive named; both purified", "note": "These are yes or no findings as the source states them, for the method shown. Binding calls can cover weak binding; strength is not graded here. Sequences can lack the tags named with a protein."}
{"binder": "B1", "values": [{"measurement": "binding", "value": "binds"}]}
